Experimental data reported in the supplement of paper PMC11006884.
Most of the targets with a hit are listed elsewhere, so they are rarer here than in the full data. The data scatter; read single values as rough. This is a selection; strong and weak results do not stand in their true shares.

The chains behind the UniProt entries cited, without tags or fusion partners. Where a name states a change or a piece, a line headed by the entry shows the natural chain unless it says otherwise.
UniProt A6NHR9: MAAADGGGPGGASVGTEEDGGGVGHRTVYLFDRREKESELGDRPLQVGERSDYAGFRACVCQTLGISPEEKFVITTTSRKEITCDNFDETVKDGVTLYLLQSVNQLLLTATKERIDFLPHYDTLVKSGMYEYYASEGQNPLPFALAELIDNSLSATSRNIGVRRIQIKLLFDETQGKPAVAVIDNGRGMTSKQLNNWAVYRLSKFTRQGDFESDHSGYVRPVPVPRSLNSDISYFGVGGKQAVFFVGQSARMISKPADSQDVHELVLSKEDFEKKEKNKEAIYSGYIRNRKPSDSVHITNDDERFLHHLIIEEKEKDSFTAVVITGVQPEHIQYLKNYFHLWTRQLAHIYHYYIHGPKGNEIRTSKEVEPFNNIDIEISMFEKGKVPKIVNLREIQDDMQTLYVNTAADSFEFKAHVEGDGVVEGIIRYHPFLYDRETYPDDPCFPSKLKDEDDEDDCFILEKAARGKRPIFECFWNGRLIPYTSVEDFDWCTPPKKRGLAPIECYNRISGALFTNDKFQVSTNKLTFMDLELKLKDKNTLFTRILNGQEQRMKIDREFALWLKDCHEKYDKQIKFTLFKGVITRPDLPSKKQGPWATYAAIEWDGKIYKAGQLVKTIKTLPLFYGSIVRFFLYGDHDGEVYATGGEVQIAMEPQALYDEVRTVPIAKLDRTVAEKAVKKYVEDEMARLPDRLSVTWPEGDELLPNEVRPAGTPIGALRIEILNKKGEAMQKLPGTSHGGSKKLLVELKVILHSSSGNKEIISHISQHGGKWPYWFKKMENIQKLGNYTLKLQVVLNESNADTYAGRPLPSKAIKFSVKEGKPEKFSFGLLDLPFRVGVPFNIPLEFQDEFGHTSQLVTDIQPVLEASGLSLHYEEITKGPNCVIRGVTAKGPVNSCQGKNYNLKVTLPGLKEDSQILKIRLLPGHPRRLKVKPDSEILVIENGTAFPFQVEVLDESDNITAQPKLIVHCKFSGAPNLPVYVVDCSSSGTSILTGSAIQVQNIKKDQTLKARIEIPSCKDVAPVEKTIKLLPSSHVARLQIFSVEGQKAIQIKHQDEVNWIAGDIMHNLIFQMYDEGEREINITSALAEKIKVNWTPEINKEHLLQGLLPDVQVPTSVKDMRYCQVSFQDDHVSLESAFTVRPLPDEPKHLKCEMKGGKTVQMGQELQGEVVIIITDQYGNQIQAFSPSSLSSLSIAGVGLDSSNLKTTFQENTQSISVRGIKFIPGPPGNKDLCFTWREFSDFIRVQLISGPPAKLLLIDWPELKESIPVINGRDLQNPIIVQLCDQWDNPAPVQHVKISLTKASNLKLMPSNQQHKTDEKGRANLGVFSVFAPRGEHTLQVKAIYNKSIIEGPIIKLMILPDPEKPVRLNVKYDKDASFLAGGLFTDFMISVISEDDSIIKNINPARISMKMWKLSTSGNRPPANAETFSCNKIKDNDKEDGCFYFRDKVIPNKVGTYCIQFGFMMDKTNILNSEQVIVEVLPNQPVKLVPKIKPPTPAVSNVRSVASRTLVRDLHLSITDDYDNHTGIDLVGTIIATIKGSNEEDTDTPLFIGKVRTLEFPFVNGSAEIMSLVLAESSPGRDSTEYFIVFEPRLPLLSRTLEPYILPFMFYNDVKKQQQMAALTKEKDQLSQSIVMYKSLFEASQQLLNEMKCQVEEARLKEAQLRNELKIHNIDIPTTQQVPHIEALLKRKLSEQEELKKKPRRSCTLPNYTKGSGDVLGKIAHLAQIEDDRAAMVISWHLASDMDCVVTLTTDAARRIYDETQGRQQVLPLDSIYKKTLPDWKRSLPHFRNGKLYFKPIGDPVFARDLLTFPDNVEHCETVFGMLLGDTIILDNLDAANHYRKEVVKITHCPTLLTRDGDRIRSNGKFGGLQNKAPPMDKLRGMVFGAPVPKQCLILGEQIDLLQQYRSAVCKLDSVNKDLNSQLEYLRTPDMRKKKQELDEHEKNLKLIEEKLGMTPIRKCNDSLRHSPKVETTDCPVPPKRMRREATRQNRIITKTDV
UniProt A5YKK6, whole entry, looked up: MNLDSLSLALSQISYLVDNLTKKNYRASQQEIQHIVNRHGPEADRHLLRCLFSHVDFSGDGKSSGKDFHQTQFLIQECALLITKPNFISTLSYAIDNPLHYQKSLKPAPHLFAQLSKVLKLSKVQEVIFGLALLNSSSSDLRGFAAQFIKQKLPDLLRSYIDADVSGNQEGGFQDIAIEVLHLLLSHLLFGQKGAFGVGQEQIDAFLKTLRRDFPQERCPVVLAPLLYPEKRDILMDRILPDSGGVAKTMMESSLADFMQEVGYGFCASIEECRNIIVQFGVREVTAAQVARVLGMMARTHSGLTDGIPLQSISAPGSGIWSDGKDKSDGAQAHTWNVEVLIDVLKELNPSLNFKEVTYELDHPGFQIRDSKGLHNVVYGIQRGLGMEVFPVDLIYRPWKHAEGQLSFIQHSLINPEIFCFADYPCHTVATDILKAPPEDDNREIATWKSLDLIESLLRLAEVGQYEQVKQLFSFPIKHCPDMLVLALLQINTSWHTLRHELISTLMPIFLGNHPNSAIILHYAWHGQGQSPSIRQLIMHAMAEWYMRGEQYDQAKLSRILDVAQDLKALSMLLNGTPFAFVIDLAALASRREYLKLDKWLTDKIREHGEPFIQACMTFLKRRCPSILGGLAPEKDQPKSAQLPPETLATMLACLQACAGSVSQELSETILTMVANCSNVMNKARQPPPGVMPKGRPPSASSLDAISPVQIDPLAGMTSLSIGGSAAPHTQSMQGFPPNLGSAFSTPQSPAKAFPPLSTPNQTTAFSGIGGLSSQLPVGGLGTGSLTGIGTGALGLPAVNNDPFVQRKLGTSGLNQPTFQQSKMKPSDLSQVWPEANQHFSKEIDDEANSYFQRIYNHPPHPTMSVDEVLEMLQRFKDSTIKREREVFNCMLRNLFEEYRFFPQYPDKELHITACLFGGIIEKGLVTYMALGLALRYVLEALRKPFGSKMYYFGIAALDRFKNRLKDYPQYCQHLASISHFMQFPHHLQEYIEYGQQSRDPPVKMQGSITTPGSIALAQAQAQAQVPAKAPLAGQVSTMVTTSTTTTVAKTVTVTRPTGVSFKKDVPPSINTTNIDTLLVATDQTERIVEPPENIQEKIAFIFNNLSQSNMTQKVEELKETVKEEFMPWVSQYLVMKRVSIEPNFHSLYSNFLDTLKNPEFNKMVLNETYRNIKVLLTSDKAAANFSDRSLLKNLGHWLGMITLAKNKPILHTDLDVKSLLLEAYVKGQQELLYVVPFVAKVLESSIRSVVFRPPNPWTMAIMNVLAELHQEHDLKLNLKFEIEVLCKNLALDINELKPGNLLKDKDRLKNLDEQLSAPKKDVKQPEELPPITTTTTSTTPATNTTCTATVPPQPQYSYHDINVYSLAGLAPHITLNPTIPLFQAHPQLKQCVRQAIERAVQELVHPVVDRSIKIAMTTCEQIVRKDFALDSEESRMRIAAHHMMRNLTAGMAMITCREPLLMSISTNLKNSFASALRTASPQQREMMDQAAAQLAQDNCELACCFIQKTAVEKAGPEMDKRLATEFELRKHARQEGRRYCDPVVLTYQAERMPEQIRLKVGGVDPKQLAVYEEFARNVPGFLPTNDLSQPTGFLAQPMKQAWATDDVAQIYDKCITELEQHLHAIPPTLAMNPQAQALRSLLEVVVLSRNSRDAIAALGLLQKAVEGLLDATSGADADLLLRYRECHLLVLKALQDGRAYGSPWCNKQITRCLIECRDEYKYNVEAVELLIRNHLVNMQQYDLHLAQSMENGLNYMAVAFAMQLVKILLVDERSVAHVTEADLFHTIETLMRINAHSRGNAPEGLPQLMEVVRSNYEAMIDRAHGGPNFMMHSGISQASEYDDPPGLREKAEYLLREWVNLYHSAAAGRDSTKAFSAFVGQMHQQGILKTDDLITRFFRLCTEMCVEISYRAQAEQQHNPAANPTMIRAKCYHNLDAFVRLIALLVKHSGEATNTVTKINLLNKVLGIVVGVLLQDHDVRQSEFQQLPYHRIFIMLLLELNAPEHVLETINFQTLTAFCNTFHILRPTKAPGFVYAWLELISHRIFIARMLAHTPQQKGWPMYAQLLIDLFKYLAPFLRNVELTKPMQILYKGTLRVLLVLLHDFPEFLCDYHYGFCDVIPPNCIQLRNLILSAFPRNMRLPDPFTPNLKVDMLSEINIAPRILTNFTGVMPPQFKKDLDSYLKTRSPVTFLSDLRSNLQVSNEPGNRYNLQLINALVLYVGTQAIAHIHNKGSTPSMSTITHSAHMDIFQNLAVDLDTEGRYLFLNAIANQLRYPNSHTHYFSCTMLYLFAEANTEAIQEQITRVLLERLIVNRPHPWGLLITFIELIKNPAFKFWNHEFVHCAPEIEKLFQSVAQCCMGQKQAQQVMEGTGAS
UniProt A0MZ66, whole entry, looked up: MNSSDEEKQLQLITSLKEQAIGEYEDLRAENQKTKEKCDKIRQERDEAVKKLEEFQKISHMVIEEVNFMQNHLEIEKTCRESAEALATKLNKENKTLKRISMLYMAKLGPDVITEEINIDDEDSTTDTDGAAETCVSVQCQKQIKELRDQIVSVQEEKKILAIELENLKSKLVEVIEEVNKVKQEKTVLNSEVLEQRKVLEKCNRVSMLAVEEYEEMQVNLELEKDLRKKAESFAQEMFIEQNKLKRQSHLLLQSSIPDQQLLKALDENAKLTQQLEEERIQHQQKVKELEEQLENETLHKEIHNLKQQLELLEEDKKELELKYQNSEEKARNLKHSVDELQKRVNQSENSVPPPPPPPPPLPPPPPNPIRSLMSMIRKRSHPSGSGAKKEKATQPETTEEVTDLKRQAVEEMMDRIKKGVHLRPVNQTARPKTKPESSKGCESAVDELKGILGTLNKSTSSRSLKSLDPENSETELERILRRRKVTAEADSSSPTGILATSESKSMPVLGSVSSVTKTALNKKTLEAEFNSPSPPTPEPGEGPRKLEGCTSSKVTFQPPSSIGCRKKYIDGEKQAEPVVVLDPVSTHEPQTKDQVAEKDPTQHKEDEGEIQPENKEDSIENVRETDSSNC
UniProt A6NFI3: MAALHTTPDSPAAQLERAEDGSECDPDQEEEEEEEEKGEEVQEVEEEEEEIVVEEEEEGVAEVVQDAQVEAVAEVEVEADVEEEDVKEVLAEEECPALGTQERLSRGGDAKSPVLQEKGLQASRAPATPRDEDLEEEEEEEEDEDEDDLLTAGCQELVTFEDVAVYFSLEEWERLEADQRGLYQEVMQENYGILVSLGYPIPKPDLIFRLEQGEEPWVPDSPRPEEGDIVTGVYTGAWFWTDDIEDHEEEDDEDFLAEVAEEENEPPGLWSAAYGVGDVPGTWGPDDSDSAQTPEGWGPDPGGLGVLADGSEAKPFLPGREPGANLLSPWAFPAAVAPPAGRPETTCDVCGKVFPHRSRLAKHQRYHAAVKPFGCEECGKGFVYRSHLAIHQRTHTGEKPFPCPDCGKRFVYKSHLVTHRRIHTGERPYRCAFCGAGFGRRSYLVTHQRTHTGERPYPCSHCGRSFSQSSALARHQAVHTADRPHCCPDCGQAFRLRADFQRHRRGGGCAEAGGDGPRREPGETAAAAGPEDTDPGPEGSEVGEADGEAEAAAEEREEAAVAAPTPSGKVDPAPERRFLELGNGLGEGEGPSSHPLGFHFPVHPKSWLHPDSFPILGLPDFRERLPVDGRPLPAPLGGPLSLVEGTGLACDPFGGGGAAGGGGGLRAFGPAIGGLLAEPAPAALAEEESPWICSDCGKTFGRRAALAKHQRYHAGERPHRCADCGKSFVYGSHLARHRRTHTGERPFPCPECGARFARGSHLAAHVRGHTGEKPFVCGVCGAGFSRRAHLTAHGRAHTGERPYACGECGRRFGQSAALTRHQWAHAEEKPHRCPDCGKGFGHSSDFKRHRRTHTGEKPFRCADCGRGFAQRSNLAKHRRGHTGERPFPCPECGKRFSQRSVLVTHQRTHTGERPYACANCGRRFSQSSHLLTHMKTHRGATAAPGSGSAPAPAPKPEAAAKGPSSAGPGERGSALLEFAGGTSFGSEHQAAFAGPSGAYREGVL
UniProt A6NDG6: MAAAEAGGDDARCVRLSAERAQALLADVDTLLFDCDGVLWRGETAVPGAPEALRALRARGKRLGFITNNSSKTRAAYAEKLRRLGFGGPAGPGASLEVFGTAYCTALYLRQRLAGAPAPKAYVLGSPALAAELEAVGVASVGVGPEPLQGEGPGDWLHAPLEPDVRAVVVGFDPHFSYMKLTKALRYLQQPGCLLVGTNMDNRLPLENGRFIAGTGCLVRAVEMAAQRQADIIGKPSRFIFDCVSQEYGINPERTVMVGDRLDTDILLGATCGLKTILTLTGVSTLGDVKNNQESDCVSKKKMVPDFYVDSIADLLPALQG

The targets below were run with COC(=O)/C=C/c1ccccc1 [methyl cinnamate] (assay: log2 ratio of iodoacetamide-alkyne labeling of the cysteine site, DMSO over compound (competition); higher = stronger covalent engagement of the cysteine by the compound, active = 1 or more). Details: 500 µM; treatment time 1 h; system: HEK293T cell lysate.
In short: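 After 1 h at ambient temperature with vehicle or electrophile (500 µM), HEK293T lysate (2 mg/mL) was labelled for 1 h with iodoacetamide alkyne and clicked to sCIP-TMT reagents. Pooled samples were trypsin-digested overnight at 37 °C, streptavidin-enriched, acid-eluted and analysed by Orbitrap Eclipse LC-MS/MS with FAIMS, then quantified in FragPipe over three replicates with duplicate channels. A cysteine's log2 competition ratio is its mean control-channel over mean compound-channel reporter intensity. Cysteines quantified in only one replicate were not included.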

Row | Target | log2 ratio of iodoacetamide-alkyne labeling
1 | SMCHD1 C1433 (UniProt A6NHR9) | inactive: 0.0524
2 | CNOT1 C219 (UniProt A5YKK6) | inactive: 0.227
3 | SH3PXD2B C783 (UniProt A1X283) | inactive: 0.234
4 | UniProt A0MZ66_C565 | inactive: 0.288
5 | ZNF316 C650 (UniProt A6NFI3) | inactive: 0.0508
6 | ILVBL C315 (UniProt A1L0T0) | inactive: -0.0232
7 | ILVBL C568 (UniProt A1L0T0) | inactive: 0.272
8 | PGP C193 (UniProt A6NDG6) | inactive: -0.0772
9 | UniProt A2RUB1_C269 | inactive: 0.0685
10 | UniProt A2RUB1_C342 | inactive: 0.162
11 | SMCHD1 C1656 (UniProt A6NHR9) | inactive: 0.302
12 | SMCHD1 C1917 (UniProt A6NHR9) | inactive: 0.18
13 | SMCHD1 C59 (UniProt A6NHR9) | inactive: 0.0634
14 | A0AVT1_C546 | inactive: 0.00296
15 | CNOT1 C624 (UniProt A5YKK6) | inactive: 0.21
16 | SMCHD1 C1124 (UniProt A6NHR9) | inactive: -0.0665
17 | GTPBP10 C338 (UniProt A4D1E9) | inactive: 0.0147
18 | SMCHD1 C1856 (UniProt A6NHR9) | inactive: 0.373
19 | CNOT1 C1541 (UniProt A5YKK6) | inactive: 0.213
20 | C5orf51 C179 (UniProt A6NDU8) | inactive: 0.29
21 | PGP C297 (UniProt A6NDG6) | inactive: 0.259
22 | PGP C243 (UniProt A6NDG6) | inactive: 0.377

Records 15–18 of the list above:
Row | Target | log2 ratio of iodoacetamide-alkyne labeling
15 | CNOT1 C624 (UniProt A5YKK6) | inactive: 0.21
16 | SMCHD1 C1124 (UniProt A6NHR9) | inactive: -0.0665
17 | GTPBP10 C338 (UniProt A4D1E9) | inactive: 0.0147
18 | SMCHD1 C1856 (UniProt A6NHR9) | inactive: 0.373
